# The list shows a part of the results. Single values are uncertain, as repeats are few or missing.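 Imaging used 1,536-well plates; nuclei positive for cleaved PARP by antibody were divided by total DNA-stained nuclei to yield the apoptosis fraction. Doses for screening kept most cells viable, and cell lines differ markedly in resting and induced cleaved-PARP levels.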
# Key:
# Test in all cases: cleaved PARP positive nuclei fraction relative to DMSO control; melanoma cells; higher = more apoptosis
# Details in all cases: library dose: low library concentration; 72 h
# 501Mel = system: 501Mel
# A101D = system: A101D
# A2058 = system: A2058
# A375 = system: A375
# C32 = system: C32
# CBRC008 = system: CBRC008 (line from a melanoma biopsy)
# CBRC013 = system: CBRC013 (line from a melanoma biopsy)
# CBRC014 = system: CBRC014 (line from a melanoma biopsy)
# CBRC016 = system: CBRC016 (line from a melanoma biopsy)
# CBRC017 = system: CBRC017 (line from a melanoma biopsy)
# COLO792 = system: COLO792
# COLO800 = system: COLO800
# COLO829 = system: COLO829
# G361 = system: G361
# IPC-298 = system: IPC-298
# IST-MEL1 = system: IST-MEL1
# LB2518-MEL = system: LB2518-MEL
# LOXIMVI = system: LOXIMVI
# MEL-HO = system: MEL-HO
SMILES,cleaved PARP positive nuclei fraction (501Mel),cleaved PARP positive nuclei fraction (A101D),cleaved PARP positive nuclei fraction (A2058),cleaved PARP positive nuclei fraction (A375),cleaved PARP positive nuclei fraction (C32),cleaved PARP positive nuclei fraction (CBRC008),cleaved PARP positive nuclei fraction (CBRC013),cleaved PARP positive nuclei fraction (CBRC014),cleaved PARP positive nuclei fraction (CBRC016),cleaved PARP positive nuclei fraction (CBRC017),cleaved PARP positive nuclei fraction (COLO792),cleaved PARP positive nuclei fraction (COLO800),cleaved PARP positive nuclei fraction (COLO829),cleaved PARP positive nuclei fraction (G361),cleaved PARP positive nuclei fraction (IPC-298),cleaved PARP positive nuclei fraction (IST-MEL1),cleaved PARP positive nuclei fraction (LB2518-MEL),cleaved PARP positive nuclei fraction (LOXIMVI),cleaved PARP positive nuclei fraction (MEL-HO)
"C[C@@H](Oc1cc(-c2cnn(C3CCNCC3)c2)cnc1N)c1c(Cl)ccc(F)c1Cl [Crizotinib] + CC(C)(C)c1cnc(CSc2cnc(NC(=O)C3CCNCC3)s2)o1 [SNS-032] (first compound 0.2 µM, partner dose 0.01 µM)",83.2%,177%,117%,186%,120%,137%,151%,71.3%,202%,90.2%,178%,58.7%,150%,95.5%,42.5%,643%,57.7%,840%,281%
"C=C(c1ccc(C(=O)O)cc1)c1cc2c(cc1C)C(C)(C)CCC2(C)C [Bexarotene] + O=C(CCCCCCC(=O)Nc1ccccc1)NO [vorinostat] (first compound 2 µM, partner dose 0.08 µM)",40.8%,97.2%,86.3%,109%,158%,339%,73.4%,92.3%,227%,111%,79.6%,84.4%,91.3%,86.7%,48.1%,49.1%,52%,53.7%,69.3%
"CCCS(=O)(=O)Nc1ccc(F)c(C(=O)c2c[nH]c3ncc(Cl)cc23)c1F + CN(NC(=O)CC(=O)NN(C)C(=S)c1ccccc1)C(=S)c1ccccc1 [STA4783] (first compound 0.08 µM, partner dose 0.006 µM)",281%,160%,110%,5680%,113%,1720%,117%,939%,97.6%,142%,272%,118%,180%,159%,103%,164%,98.3%,47.7%,91.3%
"CNC(=O)c1cc(Oc2ccc(NC(=O)Nc3ccc(Cl)c(C(F)(F)F)c3)cc2)ccn1 [sorafenib] + CN(NC(=O)CC(=O)NN(C)C(=S)c1ccccc1)C(=S)c1ccccc1 [STA4783] (first compound 0.4 µM, partner dose 0.006 µM)",145%,47.4%,138%,660%,43.6%,3340%,132%,331%,242%,608%,116%,155%,185%,141%,141%,176%,93.7%,223%,33.9%
"CNC(=O)c1cc(Oc2ccc(NC(=O)Nc3ccc(Cl)c(C(F)(F)F)c3)cc2)ccn1 [sorafenib] + O=C(Nc1cccc(Cl)c1)Nc1ncc(CCNc2ncnc3ccsc23)s1 [SNS314] (first compound 0.4 µM, partner dose 0.0008 µM)",73.9%,89%,135%,125%,238%,199%,66.2%,81%,88%,94.1%,71.8%,78.7%,53.8%,55.4%,23.8%,110%,93.9%,101%,87.9%
"CN1CCN(c2ccc3nc(-c4c(N)c5c(F)cccc5[nH]c4=O)[nH]c3c2)CC1 [Dovitinib] + Cc1ccc(NC(=O)c2cccc(N(C)C)c2)cc1NC(=O)c1ccc(O)cc1 [ZM336372] (first compound 0.1 µM, partner dose 2 µM)",112%,101%,125%,150%,150%,265%,84.8%,107%,89.2%,112%,92%,65.6%,108%,117%,234%,16.2%,130%,13.6%,46.2%
"CCCS(=O)(=O)Nc1ccc(F)c(C(=O)c2c[nH]c3ncc(Cl)cc23)c1F + O=C(CCCCCCC(=O)Nc1ccccc1)NO [vorinostat] (first compound 0.08 µM, partner dose 0.08 µM)",73.5%,208%,87.8%,82.8%,195%,40.7%,116%,85.4%,128%,251%,123%,48.2%,77.4%,123%,98.4%,75.8%,73.5%,79.6%,164%
"CO[C@H]1C[C@@H]2CC[C@@H](C)[C@@](O)(O2)C(=O)C(=O)N2CCCC[C@H]2C(=O)O[C@H]([C@H](C)C[C@@H]2CC[C@@H](OCCO)[C@H](OC)C2)CC(=O)[C@H](C)/C=C(\C)[C@@H](O)[C@@H](OC)C(=O)[C@H](C)C[C@H](C)/C=C/C=C/C=C/1C [everolimus] + CO[C@@H]1[C@H](N(C)C(=O)c2ccccc2)C[C@H]2O[C@]1(C)n1c3ccccc3c3c4c(c5c6ccccc6n2c5c31)C(=O)NC4 [Midostaurin] (first compound 0.02 µM, partner dose 0.08 µM)",97.4%,96.7%,189%,1050%,110%,242%,70.9%,91.4%,69%,110%,193%,100%,120%,280%,171%,112%,66.1%,136%,92.5%
"Nc1ncn([C@H]2C[C@H](O)[C@@H](CO)O2)c(=O)n1 [decitabine] + O=C(O)c1ccc(-c2c[nH]c3ncc(-c4ccccc4)cc23)cc1C1CCCC1 [GSK650394] (first compound 0.1 µM, partner dose 0.16 µM)",190%,256%,112%,170%,164%,226%,76.5%,90.6%,185%,74.1%,36.8%,76%,66.6%,172%,138%,109%,101%,181%,173%
"O=C(O)c1ccc2c(c1)nc(Nc1cccc(Cl)c1)c1ccncc12 + O=C(CCCCCCC(=O)Nc1ccccc1)NO [vorinostat] (first compound 0.4 µM, partner dose 0.08 µM)",152%,69.5%,38.3%,147%,64.6%,151%,97.7%,144%,202%,183%,91.1%,77%,91.5%,67.2%,180%,48.4%,91.1%,124%,91.4%
"C[C@@H](Oc1cc(-c2cnn(C3CCNCC3)c2)cnc1N)c1c(Cl)ccc(F)c1Cl [Crizotinib] + NCC(=O)Nc1ccc(-n2nc(C(F)(F)F)cc2-c2ccc3c(ccc4ccccc43)c2)cc1 [OSU03012] (first compound 0.2 µM, partner dose 1 µM)",391%,95.5%,67%,2030%,87.1%,128%,81.8%,80%,91.5%,62.6%,99.5%,32.7%,125%,113%,223%,392%,97%,29.4%,79.2%
"C[C@@H](Oc1cc(-c2cnn(C3CCNCC3)c2)cnc1N)c1c(Cl)ccc(F)c1Cl [Crizotinib] + CN(NC(=O)CC(=O)NN(C)C(=S)c1ccccc1)C(=S)c1ccccc1 [STA4783] (first compound 0.2 µM, partner dose 0.006 µM)",467%,96.5%,226%,1520%,153%,2550%,99.4%,648%,382%,256%,65.7%,622%,190%,167%,87.6%,206%,252%,228%,312%
"C[C@@H](Oc1cc(-c2cnn(C3CCNCC3)c2)cnc1N)c1c(Cl)ccc(F)c1Cl [Crizotinib] + CC1(C)NC(=O)N(c2ccc([N+](=O)[O-])c(C(F)(F)F)c2)C1=O [nilutamide] (first compound 0.2 µM, partner dose 1 µM)",99.3%,127%,113%,39.4%,69.4%,110%,136%,87.2%,86.4%,82.1%,80.9%,162%,98%,97.3%,196%,172%,110%,21%,116%
"Nc1ccn([C@@H]2O[C@H](CO)[C@@H](O)C2(F)F)c(=O)n1 [gemcitabine] + Cc1cc(N2CCOCC2)cc2[nH]c(-c3c(NC[C@@H](O)c4cccc(Cl)c4)cc[nH]c3=O)nc12 [BMS536924] (first compound 0.0004 µM, partner dose 0.2 µM)",132%,161%,366%,64.6%,115%,107%,159%,123%,116%,3170%,92.3%,90.2%,88%,39.2%,175%,121%,50.2%,36.9%,42%
"CS(=O)(=O)CCNCc1ccc(-c2ccc3ncnc(Nc4ccc(OCc5cccc(F)c5)c(Cl)c4)c3c2)o1 [lapatinib] + COc1cc2c(Oc3ccc4[nH]c(C)cc4c3F)ncnc2cc1OCCCN1CCCC1 [cediranib] (first compound 0.8 µM, partner dose 0.4 µM)",118%,755%,107%,125%,129%,166%,106%,93.2%,134%,91.8%,78.2%,107%,91.4%,89.2%,58.8%,148%,91.3%,188%,32.9%

# Already shown: entries from further up.
SMILES,cleaved PARP positive nuclei fraction (501Mel),cleaved PARP positive nuclei fraction (A101D),cleaved PARP positive nuclei fraction (A2058),cleaved PARP positive nuclei fraction (A375),cleaved PARP positive nuclei fraction (C32),cleaved PARP positive nuclei fraction (CBRC008),cleaved PARP positive nuclei fraction (CBRC013),cleaved PARP positive nuclei fraction (CBRC014),cleaved PARP positive nuclei fraction (CBRC016),cleaved PARP positive nuclei fraction (CBRC017),cleaved PARP positive nuclei fraction (COLO792),cleaved PARP positive nuclei fraction (COLO800),cleaved PARP positive nuclei fraction (COLO829),cleaved PARP positive nuclei fraction (G361),cleaved PARP positive nuclei fraction (IPC-298),cleaved PARP positive nuclei fraction (IST-MEL1),cleaved PARP positive nuclei fraction (LB2518-MEL),cleaved PARP positive nuclei fraction (LOXIMVI),cleaved PARP positive nuclei fraction (MEL-HO)
"C[C@@H](Oc1cc(-c2cnn(C3CCNCC3)c2)cnc1N)c1c(Cl)ccc(F)c1Cl [Crizotinib] + CN(NC(=O)CC(=O)NN(C)C(=S)c1ccccc1)C(=S)c1ccccc1 [STA4783] (first compound 0.2 µM, partner dose 0.006 µM)",467%,96.5%,226%,1520%,153%,2550%,99.4%,648%,382%,256%,65.7%,622%,190%,167%,87.6%,206%,252%,228%,312%
"C[C@@H](Oc1cc(-c2cnn(C3CCNCC3)c2)cnc1N)c1c(Cl)ccc(F)c1Cl [Crizotinib] + CC1(C)NC(=O)N(c2ccc([N+](=O)[O-])c(C(F)(F)F)c2)C1=O [nilutamide] (first compound 0.2 µM, partner dose 1 µM)",99.3%,127%,113%,39.4%,69.4%,110%,136%,87.2%,86.4%,82.1%,80.9%,162%,98%,97.3%,196%,172%,110%,21%,116%

# Reference: the supplement of paper PMC4604168 (melanoma cell lines)
